Results on 11 molecules are retold here after doi:10.1101/2020.05.20.107664.

For the assay, the target named is FLAG-STING, in reconstituted Sting-/- MEFs (mouse). Kind of assay: affinity purification with mass spectrometry.

Results are given in words; binding and its absence hold for the method and conditions named. Binding seen in cells or lysates may run through a third protein. These calls come from enrichment with a bait or labelling near it, and not all partners need be listed.

B1: Stt3b (protein, UniProt Q3TDQ1 1-823)
chain: MAEPSAPESKHKSSLNSSPWSGLMALGNSRHGHHGPGTQSASSAAAPKPGPPAGLSGGLSQPAGWQSLLSFTILFLAWLAGFSSRLFAVIRFESIIHEFDPWFNYRSTHHLASHGFYEFLNWFDERAWYPLGRIVGGTVYPGLMITAGLIHWILNTLNITVHIRDVCVFLAPTFSGLTSISTFLLTRELWNQGAGLLAACFIAIVPGYISRSVAGSFDNEGIAIFALQFTYYLWVKSVKTGSVFWTMCCCLSYFYMVSAWGGYVFIINLIPLHVFVLLLMQRYSKRVYIAYSTFYIVGLILSMQIPFVGFQPIRTSEHMAAAGVFALLQAYAFLQYLRDRLTKQEFQTLFFLGVSLAAGAVFLSVIYLTYTGYIAPWSGRFYSLWDTGYAKIHIPIIASVSEHQPTTWVSFFFDLHILVCTFPAGLWFCIKNINDERVFVALYAISAVYFAGVMVRLMLTLTPVVCMLSAIAFSNVFEHYLGDDMKRENPPVEDSSDEDDKRNPGNLYDKAGKVRKHVTEQEKPEEGLGPNIKSIVTMLMLMLLMMFAVHCTWVTSNAYSSPSVVLASYNHDGTRNILDDFREAYFWLRQNTDEHARVMSWWDYGYQIAGMANRTTLVDNNTWNNSHIALVGKAMSSNETAAYKIMRSLDVDYVLVIFGGVIGYSGDDINKFLWMVRIAEGEHPKDIREGDYFTQQGEFRVDKAGSPTLLNCLMYKMSYYRFGEMQLDFRTPPGFDRTRNAEIGNKDIKFKHLEEAFTSEHWLVRIYKVKAPDNRETLGHKPRVTNIVPKQKYLSKKTTKRKRGYVKNKLVFKKGKKTSKKTV
Turning to B1, the binding result is “binds”.

B2: Smpd4 (protein, UniProt Q6ZPR5 1-823)
chain: MAFPHLQQPSFLLASLKADSINKPFAQRCQDLVKVIEDFPAKELHAVFPWLVESIFGSLDGVLVGWNLRCLQGRVNPVEYSTAMEFLDPSGPMMKLVYKLQAEDYNFDFPVSCLPGPVKASIQENVLPDSPLYHNKVQFPPTGGLGLNLALNPFEYYMFYFALSLISQKPMSMTLHVRTSDCAYFTLVDRYLSWFLPTEGSVPPPLCSSPGGSSPSPAPRTPAMPFASYGLHTSLLKRHISHQTSVNADPASHEIWRSETLLQVFVEMWLHHYSLEMYQKMQSPHAKLEVLHYRLTVSSALHSPAQPSLQALHAYQESFTPTEEHVLVVRLLLKHLHAFANSLKPDQASPSAHSHATSPLEEFKRAAVPRFVQQKLYVFLQHCFGHWPLDATFRAVLEMWLSYLQPWRYAPEKQAQGSDPQPRCVSEKWAPFIQENLLMYTKLFVSFLNRALRTDLVSPKNALMVFRVAKVFAQPNLAEMIQKGEQLFLEPELIIPHRQHRLFTVTTSFLSPWPPVVTDASFKVKSHVYSLEGQDCKYTPMFGPEIRTLVLRLAQLITQAKQTAKSISDQYVESPTGRSFLSWLTFGLTDTNSCYPANDLDEIGQDSIRKTDEYLEKALEYLRQIFRLSEAQLAQLTLALGSARDENGKQQLPDCIVGEEGLILTPLGRYQIINGLRRFEIEYQGDLELQPIRSYEITSLVRALFRLSSAINRRFAGQMAALCSRNDFLGSFCRYHLTEPALSNRHLLSPVGRRQVTNPARGPRLSLRFLGSYRTLLLLLMAFFVASLFCIGPLSCSLLLVLGYVLYAIAMTLLTERGKLHQL
Regarding B2, the binding result was “binds”.

B3: Ncln (protein, UniProt Q8VCM8 43-563)
chain: AHEFTVYRMQQYDLQGQPYGTRNAVLNTEARTVDADVLSRRCVLMRLLDFSYEHYQKALRQSAGAVVIILPRAMAAVPQDVVRQFMEIEPEMLAMETVVPVYFAVEDEALLSIYEQTQAASASQGSASAAEVLLHTATANGFQMVTSGAQSQAVSDWLITSVEGRLTGLGGEDLPTIVIVAHYDAFGVAPWLSLGADSNGSGISVLLELARLFSRLYTYKRTHAAYNLLFFASGGGKFNYQGTKRWLEDSLDHTDSSLLQDNVAFVLCLDTVGRGSHLRLHVSKPPREGTLQHAFLRELETVAAHQFPDVSFSMVHKKINLADDVLAWEHERFAIRRLPAFTLSHLESHRAGPRSSIMDVRSRVDSKTLTRNTRIIAEALTRVIYNLTEKGTPPDMPVFTEQMQVQEEQIDSVMDWLTNQPRAAQLLDKDGTFLSTLEHFLSRYLKDVRQHHVKADKRDPEFVFYDQLKQVMNAYRVKPAIFDLLLALCIGAYLGMAYTAVQHFHVLYKTVQRLLLKAKAQ
Take B3: the binding entry is “binds”.

B4: Myl12a (protein, UniProt Q6ZWQ9 1-172)
chain: MSSKRAKTKTTKKRPQRATSNVFAMFDQSQIQEFKEAFNMIDQNRDGFIDKEDLHDMLASMGKNPTDEYLDAMMNEAPGPINFTMFLTMFGEKLNGTDPEDVIRNAFACFDEEAIGTIQEDYLRELLTTMGDRFTDEEVDELYREAPIDKKGNFNYIEFTRILKHGAKDKDD
In the case of B4, the binding result was “binds”.

B5: Hsd17b12 (protein, UniProt O70503 1-312)
chain: MECAPPAAGFLYWVGASTIAYLALRASYSLFRAFQVWCVGNEALVGPRLGEWAVVTGGTDGIGKAYAEELAKRGMKIVLISRSQDKLNQVSNNIKEKFNVETRTIAVDFSLDDIYDKIKTGLSGLEIGVLVNNVGMSYEYPEYFLEIPDLDNTIKKLININVLSVCKVTRLVLPGMVERSKGVILNISSASGMLPVPLLTIYSATKAFVDFFSQCLHEEYKSKGIFVQSVMPYLVATKLAKIQKPTLDKPSAETFVKSAIKTVGLQTRTTGYVIHSLMGSINSIMPRWMYFKIIMGFSKSLRNRYLKKRKKN
B5: the binding result is on record as “binds”.

B6: Slc25a4 (protein, UniProt P48962 1-298)
chain: MGDQALSFLKDFLAGGIAAAVSKTAVAPIERVKLLLQVQHASKQISAEKQYKGIIDCVVRIPKEQGFLSFWRGNLANVIRYFPTQALNFAFKDKYKQIFLGGVDRHKQFWRYFAGNLASGGAAGATSLCFVYPLDFARTRLAADVGKGSSQREFNGLGDCLTKIFKSDGLKGLYQGFSVSVQGIIIYRAAYFGVYDTAKGMLPDPKNVHIIVSWMIAQSVTAVAGLVSYPFDTVRRRMMMQSGRKGADIMYTGTLDCWRKIAKDEGANAFFKGAWSNVLRGMGGAFVLVLYDEIKKYV
In the case of B6, the binding result is given as “binds”.

B7: H13 (protein, UniProt Q9D8V0 1-378)
chain: MDSAVSDPHNGSAEAGTPANGTTRPPSTPEGIALAYGSLLLMALLPIFFGALRSVRCARGKSSSDMPETITSRDAARFPIIASCTLLGLYLFFKIFSQEYINLLLSMYFFVLGILALSHTISPFMNKFFPANFPNRQYQLLFTQGSGENKEEIINYEFDTKDLVCLGLSSVVGVWYLLRKHWIANNLFGLAFSLNGVELLHLNNVSTGCILLGGLFIYDIFWVFGTNVMVTVAKSFEAPIKLVFPQDLLEKGLEADNFAMLGLGDIVIPGIFIALLLRFDISLKKNTHTYFYTSFAAYIFGLGLTIFIMHIFKHAQPALLYLVPACIGFPVLVALAKGEVAEMFSYEESNPKDPAAETESKEESTEASASKRLEKKEK
As for B7, the binding entry is “binds”.

B8: Lpcat1 (protein, UniProt Q3TFD2 1-534)
chain: MRLRGRGPRAAPSSSSGAGDARRLAPPGRNPFVHELRLSALQKAQVAFMTLTLFPIRLLFAAFMMLLAWPFALLASLGPPDKEPEQPLALWRKVVDFLLKAIMRTMWFAGGFHRVAVKGRQALPTEAAILTLAPHSSYFDAIPVTMTMSSIVMKAESRDIPIWGTLIRYIRPVFVSRSDQDSRRKTVEEIKRRAQSNGKWPQIMIFPEGTCTNRTCLITFKPGAFIPGVPVQPVVLRYPNKLDTITWTWQGPGALKILWLTLCQFQNQVEIEFLPVYCPSEEEKRNPALYASNVRRVMAKALGVSVTDYTFEDCQLALAEGQLRLPADTCLLEFARLVRGLGLKPENLEKDLDKYSESARMKRGEKIRLPEFAAYLEVPVSDALEDMFSLFDESGGGEIDLREYVVALSVVCRPSQTLATIQLAFKMYGSPEDGSIDEANLSCILKTALGVSELTVTDLFQAIDQEDKGRITFDDFCGFAEMYPDYAEDYLYPDQTHFDSCAQTPPAPTPNGFCIDFSPENSDFGRKNSCKKAD
Turning to B8, the binding result was “binds”.

B9: Slc25a5 (protein, UniProt P51881 1-298)
chain: MTDAAVSFAKDFLAGGVAAAISKTAVAPIERVKLLLQVQHASKQITADKQYKGIIDCVVRIPKEQGVLSFWRGNLANVIRYFPTQALNFAFKDKYKQIFLGGVDKRTQFWRYFAGNLASGGAAGATSLCFVYPLDFARTRLAADVGKAGAEREFKGLGDCLVKIYKSDGIKGLYQGFNVSVQGIIIYRAAYFGIYDTAKGMLPDPKNTHIFISWMIAQSVTAVAGLTSYPFDTVRRRMMMQSGRKGTDIMYTGTLDCWRKIARDEGSKAFFKGAWSNVLRGMGGAFVLVLYDEIKKYT
For the molecule B9, the binding result was “binds”.

B10: Hacd3 (protein, UniProt Q8K2C9 1-362)
chain: METQVLTPHVYWAQRHRELYLRVELSDVQNPAISITDNVLHFKAQGHGAKGDNVYEFHLEFLDLVKPEPAYRLTQRQVNITVQKKGSHWWERLTKQEKRPLFLAPDFDRWLDESDAEMELRAKEEERLNKLRLEREGSPETLTNLKKGYLFMYNLVQLLGFSWIFVNLTVRFFILGKESFYDTFHNVADMMYFCQMLALVETLNAAIGVTSTPVLPALIQFLGRNFILFLVFGTMEEMQNKAVVFFVFYSWSAIEIFRYPFYMLSCIDMDWKVLTWLRYTMWIPLYPLGCLSEAVAVIQSIPVFNESGRFSFTLPYPVKMKVRFSFFLQVYLVMLFLGLYINFRHLYKQRRRRYGQKKKKLH
Regarding B10, the binding entry is listed as “binds”.

B11: Mars (protein, UniProt Q68FL6 1-902)
chain: MRLFVSEGSPGSLPVLAAAARARGRAELLISTVGPEECVVPFLTRPKVPVLQLDSGNYLFSASAICRYFFLLCGWEQDDLTNQWLEWEATELQPVLSAALHCLVVQGKKGEDILGPLRRVLTHIDHSLSRQNCPFLAGDTESLADIVLWGALYPLLQDPAYLPEELGALQSWFQTLSTQEPCQRAAETVLKQQGVLALRLYLQKQPQPQPPPPEGRTVSNELEEEELATLSEEDIVTAVAAWEKGLESLPPLKLQQHPVLPVPGERNVLITSALPYVNNVPHLGNIIGCVLSADVFARYCRLRQWNTLYLCGTDEYGTATETKAMEEGLTPREICDKYHAIHADIYRWFGISFDTFGRTTTPQQTKITQDIFQRLLTRGFVLRDTVEQLRCERCARFLADRFVEGVCPFCGYEEARGDQCDRCGKLINAIELKKPQCKICRSCPVVRSSQHLFLDLPKLEKRLEDWLGKTVPGSDWTPNARFIIRSWLRDGLKPRCITRDLKWGTPVPLEGFEDKVFYVWFDATIGYVSITANYTDQWEKWWKNPEQVDLYQFMAKDNVPFHGLVFPCSVLGAEDNYTLVKHIIATEYLNYEDGKFSKSRGIGVFGDMAKDTGIPADIWRFYLLYIRPEGQDSAFSWTDLLIKNNSELLNNLGNFINRAGMFVSKFFGGCVPEMALTPDDRRLVAHVSWELQHYHQLLEKVRIRDALRSILTISRHGNQYIQVNEPWKRIKGGEMDRQRAGTVTGMAVNMAALLSVMLQPYMPTVSSTIQTQLQLPPAACRILATSFICTLPAGHRIGTVSPLFQKLENDQIENLRQRFGGGQAKGSPKPAAVEAVTAAGSQHIQTLTDEVTKQGNVVRELKAQKADKNQVAAEVAKLLDLKKQLALAEGKPIETPKGKKKK
Regarding B11, the binding entry is recorded as “binds”.
